These are yes or no findings as the source states them, for the method shown. Binding seen in cells or lysates may run through a third protein. These calls come from enrichment with a bait or labelling near it, and not all partners need be listed.
Target: myc-tagged BirA* biotin ligase fused N-terminally to Rab35 (mouse) (UniProt Q6PHN9)
Assay: proximity labelling; BioID: myc-BirA*-Rab35 or BirA* alone in HEK293T cells fed 50 µM biotin for 24 h; biotinylated proteins purified on streptavidin agarose and identified by label-free quantitative mass spectrometry

The chains behind the UniProt entries cited, without tags or fusion partners.
UniProt Q6PHN9: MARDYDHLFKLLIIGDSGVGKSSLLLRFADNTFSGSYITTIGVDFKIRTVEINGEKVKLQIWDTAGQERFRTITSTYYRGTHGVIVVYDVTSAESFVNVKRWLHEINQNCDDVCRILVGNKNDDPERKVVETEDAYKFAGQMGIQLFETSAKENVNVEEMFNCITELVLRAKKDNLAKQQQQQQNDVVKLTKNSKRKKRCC
UniProt O95248: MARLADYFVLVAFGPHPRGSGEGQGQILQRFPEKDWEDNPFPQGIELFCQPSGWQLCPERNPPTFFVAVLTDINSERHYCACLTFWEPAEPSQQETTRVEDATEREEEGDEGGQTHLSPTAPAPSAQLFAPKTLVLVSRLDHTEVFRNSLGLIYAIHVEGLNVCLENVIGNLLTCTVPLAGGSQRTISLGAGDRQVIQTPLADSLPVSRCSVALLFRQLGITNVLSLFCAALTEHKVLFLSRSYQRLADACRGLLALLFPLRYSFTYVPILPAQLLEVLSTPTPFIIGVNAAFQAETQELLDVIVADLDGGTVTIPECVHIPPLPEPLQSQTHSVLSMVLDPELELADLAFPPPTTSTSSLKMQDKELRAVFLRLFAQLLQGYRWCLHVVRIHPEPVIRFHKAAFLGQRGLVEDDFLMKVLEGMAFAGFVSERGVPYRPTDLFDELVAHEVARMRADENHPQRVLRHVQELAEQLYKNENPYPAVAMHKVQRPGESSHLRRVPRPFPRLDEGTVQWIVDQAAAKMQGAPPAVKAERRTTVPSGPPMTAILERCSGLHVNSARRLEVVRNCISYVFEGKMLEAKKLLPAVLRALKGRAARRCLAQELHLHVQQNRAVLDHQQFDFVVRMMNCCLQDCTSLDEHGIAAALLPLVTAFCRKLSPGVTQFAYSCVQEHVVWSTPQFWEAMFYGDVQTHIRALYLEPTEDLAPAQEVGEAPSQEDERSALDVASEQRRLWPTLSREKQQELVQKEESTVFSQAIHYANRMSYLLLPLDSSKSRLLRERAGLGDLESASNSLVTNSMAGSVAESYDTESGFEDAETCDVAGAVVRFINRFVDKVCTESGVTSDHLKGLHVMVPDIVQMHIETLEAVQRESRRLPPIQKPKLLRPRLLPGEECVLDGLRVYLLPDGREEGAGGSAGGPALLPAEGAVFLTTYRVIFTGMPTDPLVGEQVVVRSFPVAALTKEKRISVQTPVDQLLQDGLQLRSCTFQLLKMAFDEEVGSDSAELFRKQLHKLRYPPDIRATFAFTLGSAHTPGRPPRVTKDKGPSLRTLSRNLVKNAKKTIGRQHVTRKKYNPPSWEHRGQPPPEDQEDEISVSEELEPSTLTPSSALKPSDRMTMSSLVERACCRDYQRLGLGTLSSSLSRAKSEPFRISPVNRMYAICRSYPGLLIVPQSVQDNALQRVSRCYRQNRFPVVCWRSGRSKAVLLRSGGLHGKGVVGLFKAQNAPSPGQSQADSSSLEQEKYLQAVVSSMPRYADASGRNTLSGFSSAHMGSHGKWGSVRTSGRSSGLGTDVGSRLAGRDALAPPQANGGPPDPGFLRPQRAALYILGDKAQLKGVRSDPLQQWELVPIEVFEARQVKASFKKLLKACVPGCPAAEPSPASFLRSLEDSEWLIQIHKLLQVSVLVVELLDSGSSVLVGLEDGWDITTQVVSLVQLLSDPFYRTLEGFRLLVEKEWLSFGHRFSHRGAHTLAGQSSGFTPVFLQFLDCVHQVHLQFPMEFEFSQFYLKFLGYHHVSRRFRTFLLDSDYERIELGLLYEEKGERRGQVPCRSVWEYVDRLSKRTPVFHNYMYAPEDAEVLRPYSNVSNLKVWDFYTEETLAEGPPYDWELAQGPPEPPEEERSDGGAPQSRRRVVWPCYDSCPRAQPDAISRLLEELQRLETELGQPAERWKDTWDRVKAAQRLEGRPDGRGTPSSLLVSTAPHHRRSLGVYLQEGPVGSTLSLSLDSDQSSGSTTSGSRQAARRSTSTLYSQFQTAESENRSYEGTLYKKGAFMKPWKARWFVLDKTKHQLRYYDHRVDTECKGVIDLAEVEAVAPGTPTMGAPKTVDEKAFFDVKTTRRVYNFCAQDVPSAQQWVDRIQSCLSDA
UniProt Q86WG5: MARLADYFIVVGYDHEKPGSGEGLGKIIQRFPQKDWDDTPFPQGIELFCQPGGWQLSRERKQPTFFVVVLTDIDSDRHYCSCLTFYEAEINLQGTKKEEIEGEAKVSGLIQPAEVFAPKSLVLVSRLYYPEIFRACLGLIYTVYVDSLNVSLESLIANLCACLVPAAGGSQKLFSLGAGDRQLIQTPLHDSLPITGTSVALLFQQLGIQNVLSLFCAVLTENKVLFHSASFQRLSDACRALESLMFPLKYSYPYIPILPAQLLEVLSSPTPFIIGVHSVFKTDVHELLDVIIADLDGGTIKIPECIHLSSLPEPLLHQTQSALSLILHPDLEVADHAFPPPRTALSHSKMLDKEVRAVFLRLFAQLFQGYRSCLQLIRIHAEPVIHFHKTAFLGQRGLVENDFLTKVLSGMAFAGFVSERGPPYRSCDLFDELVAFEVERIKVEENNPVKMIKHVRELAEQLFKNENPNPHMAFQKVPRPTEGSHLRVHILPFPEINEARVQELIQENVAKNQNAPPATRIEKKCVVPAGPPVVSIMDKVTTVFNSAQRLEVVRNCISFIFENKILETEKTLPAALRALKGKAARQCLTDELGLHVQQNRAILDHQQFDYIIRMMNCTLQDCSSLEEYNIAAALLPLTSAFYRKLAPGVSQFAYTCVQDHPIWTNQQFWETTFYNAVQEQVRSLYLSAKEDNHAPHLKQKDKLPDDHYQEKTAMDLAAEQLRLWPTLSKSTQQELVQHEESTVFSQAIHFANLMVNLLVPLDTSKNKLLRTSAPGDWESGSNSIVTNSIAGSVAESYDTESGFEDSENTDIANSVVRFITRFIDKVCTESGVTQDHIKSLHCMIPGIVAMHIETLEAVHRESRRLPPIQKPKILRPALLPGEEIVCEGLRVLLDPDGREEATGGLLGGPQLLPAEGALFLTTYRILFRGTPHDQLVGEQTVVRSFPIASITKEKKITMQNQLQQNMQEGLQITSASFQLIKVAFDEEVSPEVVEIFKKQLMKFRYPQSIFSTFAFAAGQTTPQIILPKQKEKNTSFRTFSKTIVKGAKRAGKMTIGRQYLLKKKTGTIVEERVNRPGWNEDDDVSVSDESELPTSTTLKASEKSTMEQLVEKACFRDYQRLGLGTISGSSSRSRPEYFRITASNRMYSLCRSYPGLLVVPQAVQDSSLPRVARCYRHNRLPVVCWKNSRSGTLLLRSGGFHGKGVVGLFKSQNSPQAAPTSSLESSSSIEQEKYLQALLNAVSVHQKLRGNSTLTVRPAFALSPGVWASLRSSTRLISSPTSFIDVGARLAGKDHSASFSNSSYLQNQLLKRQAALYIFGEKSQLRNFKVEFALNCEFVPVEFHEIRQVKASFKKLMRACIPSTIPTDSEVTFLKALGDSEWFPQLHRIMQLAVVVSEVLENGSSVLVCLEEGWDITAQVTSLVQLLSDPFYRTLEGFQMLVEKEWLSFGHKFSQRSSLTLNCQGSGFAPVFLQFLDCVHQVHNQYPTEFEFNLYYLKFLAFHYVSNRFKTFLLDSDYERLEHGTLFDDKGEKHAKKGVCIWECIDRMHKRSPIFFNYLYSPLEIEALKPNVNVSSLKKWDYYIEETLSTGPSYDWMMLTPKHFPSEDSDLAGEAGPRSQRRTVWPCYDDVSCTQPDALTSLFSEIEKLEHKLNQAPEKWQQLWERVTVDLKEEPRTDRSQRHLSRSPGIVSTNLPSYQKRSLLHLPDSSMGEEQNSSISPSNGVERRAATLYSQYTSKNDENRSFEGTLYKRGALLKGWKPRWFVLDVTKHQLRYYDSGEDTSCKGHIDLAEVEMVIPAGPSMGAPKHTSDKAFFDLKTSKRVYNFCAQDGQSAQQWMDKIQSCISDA

binding | Substance
binds | MTMR5 (SBF1), endogenous (from UniProt O95248 1-1868)
binds | MTMR13 (myotubularin-related protein 13, SET binding factor 2), endogenous (from UniProt Q86WG5 1-1849)

— paper PMC7275063
